Record: PubChem BioAssay AID1224826 (NIAID, 2016)

Purpose: 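Knock-downs that raise or lower Tnf reporter signal after endotoxin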 (primary screen)
Cells: RAW264.7 G9 macrophages from mouse bearing reporters for p65 (GFP) and the Tnf promoter (mCherry)
Knock-down reagent: siRNA pool against mouse genes, 100 nM
Timing: 16 h of LPS stimulation, after 2 days of siRNA transfection
Challenge: bacterial lipopolysaccharide (Salmonella minnesota R595), 10 ng/ml
Detection: 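Imaged Tnf reporter mCherry in nuclei, minus background, normalised per plate to the median and expressed as robust z-scores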
Reading the numbers: Tnf reporter robust z-score: higher = stronger Tnf promoter reporter signal after LPS; Tnf reporter intensity: higher = stronger Tnf promoter reporter signal
Call rule: 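a well counts as active at a score of -1.3 or below (Tlr4 knock-down control median) or above 3 (raised signal); controls and wells holding fewer than 50 cells are excluded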
Meaning of the calls: active = Tnf reporter clearly lowered or raised; inactive = no clear change in Tnf reporter
In all, the deposit lists about 17,000 reagents; this is a random part of them. Of all reagents, about 1,110 (6.6%) are marked active. 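Active means lowered or raised reporter signal; replicate intensities are raw and not normalised per plate.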 Unmarked entries are inactive. The numbers tell different reagents against one gene apart. No sequences are given here.

| Gene | reagent no. | Tnf reporter robust z-score | fewer than 50 cells in well | Tnf reporter intensity, replicate 1 | Tnf reporter intensity, replicate 2 |
| --- | --- | --- | --- | --- | --- |
| Casp14 (GeneID 12365) | 1 | -0.87 | enough cells in well | 103 | 114 |
| Dazl (GeneID 13164) | 1 | 0.89 | enough cells in well | 216 | 233 |
| Cidea (GeneID 12683) | 1 | -0.86 | enough cells in well | 158 | 164 |
| Man2b1 (GeneID 17159) | 1 | -0.06 | enough cells in well | 267 | 194 |
| Fmr1nb (GeneID 207854) | 1 | – | fewer than 50 cells per well; well left out of calls | 143 | 71.4 |
| Gm16938 (GeneID 330599) | 1 | – | fewer than 50 cells per well; well left out of calls | 113 | 23.4 |
| Mzb1 (GeneID 69816) | 1 | – | fewer than 50 cells per well; well left out of calls | 266 | 103 |
| Golga2 (GeneID 99412) | 1 | 1.29 | enough cells in well | 333 | 248 |
| Rtn1 (GeneID 104001) | 1 | -0.85 | enough cells in well | 100 | 82.6 |
| Ido1 (GeneID 15930) | 1 | 0.96 | enough cells in well | 225 | 194 |
| Sh3kbp1 (GeneID 58194) | 1 | 0.39 | enough cells in well | 297 | 260 |
| Ftcd (GeneID 14317) | 1 | -0.26 | enough cells in well | 238 | 116 |
| Il20 (GeneID 58181) | 1 | -1.42 (active) | enough cells in well | 95.7 | 71.9 |
| Exoc4 (GeneID 20336) | 1 | – | fewer than 50 cells per well; well left out of calls | 86.3 | 83.2 |
| Frat1 (GeneID 14296) | 1 | 0.16 | enough cells in well | 273 | 246 |
| Fbxo48 (GeneID 319701) | 1 | -0.15 | enough cells in well | 151 | 158 |
| Ube2q2 (GeneID 109161) | 1 | – | fewer than 50 cells per well; well left out of calls | 182 | 45.5 |
| Asah1 (GeneID 11886) | 1 | -0.49 | enough cells in well | 108 | 153 |
| Vmn1r216 (GeneID 171279) | 1 | 1.84 | enough cells in well | 202 | 137 |
| Trem5 (GeneID 328829) | 1 | 1.8 | enough cells in well | 283 | 310 |
| Trappc8 (GeneID 75964) | 1 | -0.32 | enough cells in well | 167 | 154 |
| Or8c17 (GeneID 258875) | 1 | 3.75 (active) | enough cells in well | 275 | 200 |
| Wsb1 (GeneID 78889) | 1 | 1.08 | enough cells in well | 175 | 164 |
| Fbln2 (GeneID 14115) | 1 | 1.93 | enough cells in well | 373 | 250 |
| Adgb (GeneID 215772) | 1 | 1.49 | enough cells in well | 241 | 233 |
| Rab5c (GeneID 19345) | 1 | 0.66 | enough cells in well | 373 | 253 |
| Adamts5 (GeneID 23794) | 1 | 1.83 | enough cells in well | 252 | 297 |
| Clec10a (GeneID 17312) | 1 | 0.19 | enough cells in well | 279 | 91.2 |
| Ep400 (GeneID 75560) | 1 | -0.44 | enough cells in well | 237 | 99.2 |
| Zbtb12 (GeneID 193736) | 1 | -0.32 | enough cells in well | 184 | 185 |
| Rab9b (GeneID 319642) | 1 | 1.59 | enough cells in well | 234 | 252 |
| Mipol1 (GeneID 73490) | 1 | -0.1 | enough cells in well | 227 | 222 |
| Ptpru (GeneID 19273) | 1 | 0.2 | enough cells in well | 334 | 217 |
| Ankzf1 (GeneID 52231) | 1 | 1.09 | enough cells in well | 273 | 228 |
| Col11a2 (GeneID 12815) | 1 | 0.42 | enough cells in well | 248 | 268 |
| Trpc4ap (GeneID 56407) | 1 | 0.41 | enough cells in well | 140 | 97.8 |
| Flt3 (GeneID 14255) | 1 | 0.48 | enough cells in well | 269 | 148 |

Next part, starting with the last 8 of the part before.
| Gene | reagent no. | Tnf reporter robust z-score | fewer than 50 cells in well | Tnf reporter intensity, replicate 1 | Tnf reporter intensity, replicate 2 |
| --- | --- | --- | --- | --- | --- |
| Zbtb12 (GeneID 193736) | 1 | -0.32 | enough cells in well | 184 | 185 |
| Rab9b (GeneID 319642) | 1 | 1.59 | enough cells in well | 234 | 252 |
| Mipol1 (GeneID 73490) | 1 | -0.1 | enough cells in well | 227 | 222 |
| Ptpru (GeneID 19273) | 1 | 0.2 | enough cells in well | 334 | 217 |
| Ankzf1 (GeneID 52231) | 1 | 1.09 | enough cells in well | 273 | 228 |
| Col11a2 (GeneID 12815) | 1 | 0.42 | enough cells in well | 248 | 268 |
| Trpc4ap (GeneID 56407) | 1 | 0.41 | enough cells in well | 140 | 97.8 |
| Flt3 (GeneID 14255) | 1 | 0.48 | enough cells in well | 269 | 148 |
| Xkr5 (GeneID 319581) | 1 | -0.87 | enough cells in well | 124 | 104 |
| Zfp28 (GeneID 22690) | 1 | 3.03 (active) | enough cells in well | 67.7 | 263 |
| Zfp28 (GeneID 22690) | 2 | – | fewer than 50 cells per well; well left out of calls | 159 | 46.5 |
| Sts (GeneID 20905) | 1 | -0.38 | enough cells in well | 79.6 | 93.8 |
| Cnmd (GeneID 16840) | 1 | 0.08 | enough cells in well | 199 | 133 |
| Nedd4 (GeneID 17999) | 1 | -1.81 (active) | enough cells in well | 96.2 | 36.6 |
| Dtl (GeneID 76843) | 1 | -0.09 | enough cells in well | 168 | 137 |
| Itga2 (GeneID 16398) | 1 | -0.03 | enough cells in well | 214 | 166 |
| Rps3 (GeneID 27050) | 1 | -1.44 (active) | enough cells in well | 147 | 114 |
| Slc7a5 (GeneID 20539) | 1 | -2.02 (active) | enough cells in well | 40.2 | 23.9 |
| Srsf6 (GeneID 67996) | 1 | 0.85 | enough cells in well | 92.6 | 171 |
| Slc1a4 (GeneID 55963) | 1 | 0.36 | enough cells in well | 107 | 120 |
| Foxj3 (GeneID 230700) | 1 | -0.93 | enough cells in well | 98.8 | 112 |
| Zfp952 (GeneID 240067) | 1 | -0.71 | enough cells in well | 181 | 80.5 |
| Plg (GeneID 18815) | 1 | -0.5 | enough cells in well | 195 | 169 |
| Magt1 (GeneID 67075) | 1 | 2.42 | enough cells in well | 364 | 155 |
| Or9a2 (GeneID 258569) | 1 | 0.41 | enough cells in well | 107 | 134 |
| Clec18a (GeneID 353287) | 1 | 0.15 | enough cells in well | 228 | 84.3 |
| Gnb2 (GeneID 14693) | 1 | 0.6 | enough cells in well | 312 | 186 |
| Or51f23b (GeneID 259117) | 1 | – | fewer than 50 cells per well; well left out of calls | 77.3 | 78.9 |
| Aff1 (GeneID 17355) | 1 | 1.15 | enough cells in well | 248 | 184 |
